{
  "source": "patent US20240240256A1",
  "about": "“MOLECULAR ANALYSIS OF EXTRACELLULAR VESICLES (EVs) FOR THE PREDICTION AND MONITORING OF DRUG RESISTANCE IN CANCER” (The General Hospital Corporation, priority 2023, published 2024)",
  "tested_on": "MCF7",
  "test": "MTT growth inhibition assay, paclitaxel drug sensitivity",
  "format": "cell-based",
  "conditions": "Homo sapiens, MCF7 breast cancer cells, 72 h treatment, read-out: paclitaxel inhibitor concentration 50 (IC50)",
  "description": "The human breast cancer cell lines, including HCC1954, BT474, MCF7, MDA-MB-231, HCC1937 cells, and normal breast cell, Hs371T, were purchased from American Type Culture Collection (ATCC) and cultured at 37° C. in 5% CO2. HCC1954, BT474, and HCC1937 cells were grown in RPMI-1640 (Hyclone), and MCF7, MDA-MB-231, and Hs371T cells were cultured in DMEM (Cyclone). All complete media contained 10% fetal bovine serum (FBS, ThermoFisher Scientific), 100 U/mL penicillin, and 100 μg/mL streptomycin (Millipore Sigma).\nDrug sensitivity was determined by the 3-(4, 5-dimethylthiazol-2-yl)-2, 5-diphenyl tetrazolium bromide (MTT) colorimetric assay. First, cells were counted with a hemocytometer, seeded in a 96-well plate, and cultured for 24 h. After that, cells were treated with paclitaxel for 72 h: paclitaxel (1.00E-06-10 µM). Subsequently, MTT dye (Sigma-Aldrich; Merck KGaA) at a final concentration of 0.5 mg/ml was added for 3 hours. This was followed by replacing the medium and dissolving the formazan crystals with DMSO. The optical density (OD; absorbance at 540 nm) was measured using a plate reader (Tecan). Data (mean±SD of at least three independent experiments performed in triplets) are presented as the relative proliferation as a function of time after seeding. […]",
  "data": [
    {"smiles": "CC(=O)O[C@H]1C(=O)[C@@]2(C)[C@H]([C@H](OC(=O)c3ccccc3)[C@]3(O)C[C@H](OC(=O)[C@H](O)[C@@H](NC(=O)c4ccccc4)c4ccccc4)C(C)=C1C3(C)C)[C@]1(OC(C)=O)CO[C@@H]1C[C@@H]2O", "note": "[paclitaxel, Paclitaxel]", "values": [
      {"measurement": "IC50", "value": 200, "unit": "nM"}
    ]}
  ]
}
